# For at least one compound, name, drawing or mass did not settle the structure.
# Columns and labels:
# RPMI-8226 = assay: WST-1 proliferation assay, combination study (CalcuSyn CI); type: cell-based
# JJN3 = assay: as above; type: cell-based
# [1] = dexamethasone treatment of multiple myeloma; cited from earlier work
# U266 = assay: WST-1 proliferation assay, combination study (CalcuSyn CI); type: cell-based
compound,measurement,setting,value
"C[C@@H]1C[C@H]2[C@@H]3CCC4=CC(=O)C=C[C@]4(C)[C@@]3(F)[C@@H](O)C[C@]2(C)[C@@]1(O)C(=O)CO [Dexamethasone, dexamethasone]",sensitivity of cells to dexamethasone,RPMI-8226,resistant
same,sensitivity of cells to dexamethasone,JJN3,resistant
same,response rate,[1],25-35%
same,sensitivity of cells to dexamethasone,U266,resistant
